Data published in paper doi:10.1101/2022.09.08.506647.
These are yes or no findings as the source states them, for the method shown. In cells and extracts the contact can be indirect. These calls come from enrichment with a bait or labelling near it, and not all partners need be listed.

By UniProt entry, the sequences of proteins in these tests, tags left out.
UniProt P78344: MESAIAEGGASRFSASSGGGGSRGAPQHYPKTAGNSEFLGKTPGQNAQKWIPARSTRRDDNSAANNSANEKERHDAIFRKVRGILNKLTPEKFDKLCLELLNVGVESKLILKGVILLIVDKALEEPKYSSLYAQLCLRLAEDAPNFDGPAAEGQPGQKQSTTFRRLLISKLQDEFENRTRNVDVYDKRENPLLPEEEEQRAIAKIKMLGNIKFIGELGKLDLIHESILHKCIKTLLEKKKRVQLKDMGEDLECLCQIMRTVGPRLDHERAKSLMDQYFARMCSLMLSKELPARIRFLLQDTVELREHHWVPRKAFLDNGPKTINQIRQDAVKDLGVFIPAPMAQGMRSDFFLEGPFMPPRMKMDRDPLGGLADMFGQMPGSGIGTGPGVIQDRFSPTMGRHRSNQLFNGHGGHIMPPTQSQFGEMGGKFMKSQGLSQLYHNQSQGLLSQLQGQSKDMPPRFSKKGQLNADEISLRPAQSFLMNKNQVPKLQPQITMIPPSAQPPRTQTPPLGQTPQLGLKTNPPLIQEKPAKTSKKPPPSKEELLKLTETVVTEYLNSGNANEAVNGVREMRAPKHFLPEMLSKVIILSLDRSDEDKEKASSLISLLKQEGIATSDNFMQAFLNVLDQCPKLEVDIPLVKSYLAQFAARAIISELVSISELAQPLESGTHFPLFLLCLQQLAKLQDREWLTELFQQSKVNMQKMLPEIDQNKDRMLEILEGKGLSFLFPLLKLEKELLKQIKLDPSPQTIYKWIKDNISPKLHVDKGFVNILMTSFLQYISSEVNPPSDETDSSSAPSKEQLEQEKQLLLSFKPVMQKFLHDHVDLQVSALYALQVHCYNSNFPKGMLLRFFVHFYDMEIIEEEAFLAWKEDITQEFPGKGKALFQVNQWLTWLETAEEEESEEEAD

T1: DEAD-box helicase 1 (DDX1), endogenous (human (endogenous in KELLY and IMR5/75)) (UniProt Q92499)
T1 sequence: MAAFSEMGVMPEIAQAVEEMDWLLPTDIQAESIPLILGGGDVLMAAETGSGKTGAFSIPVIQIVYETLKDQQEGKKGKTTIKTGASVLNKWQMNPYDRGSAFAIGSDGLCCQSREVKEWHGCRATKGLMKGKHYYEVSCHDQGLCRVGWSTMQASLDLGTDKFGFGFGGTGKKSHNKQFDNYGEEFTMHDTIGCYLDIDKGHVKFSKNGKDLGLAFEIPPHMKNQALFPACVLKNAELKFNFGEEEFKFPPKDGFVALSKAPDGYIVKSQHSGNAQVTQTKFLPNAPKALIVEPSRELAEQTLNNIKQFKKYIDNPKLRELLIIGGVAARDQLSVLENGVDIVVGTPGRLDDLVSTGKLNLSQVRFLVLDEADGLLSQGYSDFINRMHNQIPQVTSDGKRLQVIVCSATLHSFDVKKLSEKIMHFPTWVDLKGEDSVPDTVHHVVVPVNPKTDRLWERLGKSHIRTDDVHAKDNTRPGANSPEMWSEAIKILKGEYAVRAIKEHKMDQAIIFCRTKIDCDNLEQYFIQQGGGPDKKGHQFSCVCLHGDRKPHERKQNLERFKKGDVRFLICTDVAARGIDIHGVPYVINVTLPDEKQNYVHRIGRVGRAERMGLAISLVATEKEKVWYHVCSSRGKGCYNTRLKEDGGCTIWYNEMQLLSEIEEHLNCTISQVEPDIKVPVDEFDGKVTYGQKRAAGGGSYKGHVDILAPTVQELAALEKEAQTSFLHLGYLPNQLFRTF


Biological target: T1, DEAD-box helicase 1 (DDX1), endogenous (human (endogenous in KELLY and IMR5/75))
Test: affinity purification with mass spectrometry

Molecule	binding
eIF4G2, endogenous (from UniProt P78344 1-907)	binds
DLD, endogenous (protein, UniProt P09622 36-509) ADQPIDADVTVIGSGPGGYVAAIKAAQLGFKTVCIEKNETLGGTCLNVGCIPSKALLNNSHYYHMAHGKDFASRGIEMSEVRLNLDKMMEQKSTAVKALTGGIAHLFKQNKVVHVNGYGKITGKNQVTATKADGGTQVIDTKNILIATGSEVTPFPGITIDEDTIVSSTGALSLKKVPEKMVVIGAGVIGVELGSVWQRLGADVTAVEFLGHVGGVGIDMEISKNFQRILQKQGFKFKLNTKVTGATKKSDGKIDVSIEAASGGKAEVITCDVLLVCIGRRPFTKNLGLEELGIELDPRGRIPVNTRFQTKIPNIYAIGDVVAGPMLAHKAEDEGIICVEGMAGGAVHIDYNCVPSVIYTHPEVAWVGKSEEQLKEEGIEYKVGKFPFAANSRAKTNADTDGMVKILGQKSTDRVLGAHILGPGAGEMVNEAALALEYGASCEDIARVCHAHPTLSEAFREANLAASFGKSINF	binds
